Results taken from publication doi:10.1101/2021.01.15.426831.
Where two headings read alike, the source gives them in different places. No constants are given. Whether binding was seen depends on the method and setting. For part of these data: In cells and extracts the contact can be indirect. Some binding calls cover weakened binding; strength is not graded here. For part of these data: Sequences can lack the tags named with a protein. Values belong to the molecule of their own block, whether it stands above or below them.

Amino acid sequences for entries named in this document (tags omitted). A change or cut given only in a name is not applied to a line headed by its entry. Chains listed by the source or under a name are the forms on record and can include a tag or linker. Residues count along the entry.
UniProt Q969U6: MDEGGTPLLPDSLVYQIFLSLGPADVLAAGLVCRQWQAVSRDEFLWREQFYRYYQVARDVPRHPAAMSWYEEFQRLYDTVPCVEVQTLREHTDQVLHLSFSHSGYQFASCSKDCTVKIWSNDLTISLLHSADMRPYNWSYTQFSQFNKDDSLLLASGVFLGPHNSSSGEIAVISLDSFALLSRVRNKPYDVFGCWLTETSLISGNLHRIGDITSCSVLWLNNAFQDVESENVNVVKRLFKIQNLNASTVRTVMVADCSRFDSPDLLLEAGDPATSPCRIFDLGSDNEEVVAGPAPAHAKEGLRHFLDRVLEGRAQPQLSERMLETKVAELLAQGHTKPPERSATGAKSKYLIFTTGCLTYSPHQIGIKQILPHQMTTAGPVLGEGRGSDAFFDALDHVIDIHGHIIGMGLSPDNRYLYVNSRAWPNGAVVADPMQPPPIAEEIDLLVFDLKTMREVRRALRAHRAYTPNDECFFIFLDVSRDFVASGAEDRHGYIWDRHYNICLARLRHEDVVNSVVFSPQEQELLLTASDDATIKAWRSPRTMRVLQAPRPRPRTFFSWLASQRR
Skp1ΔΔ (P63208, form named): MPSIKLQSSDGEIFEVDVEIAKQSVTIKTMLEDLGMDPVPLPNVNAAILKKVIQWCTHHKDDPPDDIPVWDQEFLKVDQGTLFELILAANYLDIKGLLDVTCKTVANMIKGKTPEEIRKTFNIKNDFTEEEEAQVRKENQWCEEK
UniProt Q969H0: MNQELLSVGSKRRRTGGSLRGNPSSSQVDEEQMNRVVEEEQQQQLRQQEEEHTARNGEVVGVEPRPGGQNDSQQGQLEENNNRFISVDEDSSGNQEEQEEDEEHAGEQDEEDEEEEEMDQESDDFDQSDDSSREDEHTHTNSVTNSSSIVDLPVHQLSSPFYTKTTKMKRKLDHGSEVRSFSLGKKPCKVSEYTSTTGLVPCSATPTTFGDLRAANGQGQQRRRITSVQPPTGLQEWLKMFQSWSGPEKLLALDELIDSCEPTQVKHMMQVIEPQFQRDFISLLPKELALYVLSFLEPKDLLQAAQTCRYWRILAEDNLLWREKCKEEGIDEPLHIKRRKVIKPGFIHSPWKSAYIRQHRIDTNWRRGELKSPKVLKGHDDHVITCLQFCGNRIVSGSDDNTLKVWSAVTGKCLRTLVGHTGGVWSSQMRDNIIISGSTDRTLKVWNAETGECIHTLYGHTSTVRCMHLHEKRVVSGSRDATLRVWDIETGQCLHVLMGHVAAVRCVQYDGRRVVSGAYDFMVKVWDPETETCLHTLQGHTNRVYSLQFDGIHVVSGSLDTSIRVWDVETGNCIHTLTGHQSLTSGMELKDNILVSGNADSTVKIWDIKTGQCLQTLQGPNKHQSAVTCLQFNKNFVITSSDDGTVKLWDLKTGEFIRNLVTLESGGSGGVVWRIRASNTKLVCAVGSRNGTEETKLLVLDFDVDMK
UniProt O00139, residues 28-706: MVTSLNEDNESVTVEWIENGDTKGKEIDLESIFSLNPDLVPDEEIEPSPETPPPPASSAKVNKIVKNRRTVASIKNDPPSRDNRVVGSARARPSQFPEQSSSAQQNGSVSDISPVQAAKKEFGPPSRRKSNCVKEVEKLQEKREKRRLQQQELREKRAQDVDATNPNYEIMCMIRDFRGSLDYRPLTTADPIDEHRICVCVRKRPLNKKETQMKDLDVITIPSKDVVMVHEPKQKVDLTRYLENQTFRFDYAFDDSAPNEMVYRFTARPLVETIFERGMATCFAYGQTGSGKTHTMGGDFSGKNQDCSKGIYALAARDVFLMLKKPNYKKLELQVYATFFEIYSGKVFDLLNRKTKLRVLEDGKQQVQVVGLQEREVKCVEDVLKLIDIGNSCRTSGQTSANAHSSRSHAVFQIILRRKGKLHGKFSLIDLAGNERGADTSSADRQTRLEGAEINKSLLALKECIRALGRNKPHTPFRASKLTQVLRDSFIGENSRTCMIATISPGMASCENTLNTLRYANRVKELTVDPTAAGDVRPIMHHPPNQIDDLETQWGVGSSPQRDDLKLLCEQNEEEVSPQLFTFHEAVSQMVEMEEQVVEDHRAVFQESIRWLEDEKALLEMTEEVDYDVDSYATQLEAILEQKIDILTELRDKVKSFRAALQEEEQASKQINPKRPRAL
UniProt O14964: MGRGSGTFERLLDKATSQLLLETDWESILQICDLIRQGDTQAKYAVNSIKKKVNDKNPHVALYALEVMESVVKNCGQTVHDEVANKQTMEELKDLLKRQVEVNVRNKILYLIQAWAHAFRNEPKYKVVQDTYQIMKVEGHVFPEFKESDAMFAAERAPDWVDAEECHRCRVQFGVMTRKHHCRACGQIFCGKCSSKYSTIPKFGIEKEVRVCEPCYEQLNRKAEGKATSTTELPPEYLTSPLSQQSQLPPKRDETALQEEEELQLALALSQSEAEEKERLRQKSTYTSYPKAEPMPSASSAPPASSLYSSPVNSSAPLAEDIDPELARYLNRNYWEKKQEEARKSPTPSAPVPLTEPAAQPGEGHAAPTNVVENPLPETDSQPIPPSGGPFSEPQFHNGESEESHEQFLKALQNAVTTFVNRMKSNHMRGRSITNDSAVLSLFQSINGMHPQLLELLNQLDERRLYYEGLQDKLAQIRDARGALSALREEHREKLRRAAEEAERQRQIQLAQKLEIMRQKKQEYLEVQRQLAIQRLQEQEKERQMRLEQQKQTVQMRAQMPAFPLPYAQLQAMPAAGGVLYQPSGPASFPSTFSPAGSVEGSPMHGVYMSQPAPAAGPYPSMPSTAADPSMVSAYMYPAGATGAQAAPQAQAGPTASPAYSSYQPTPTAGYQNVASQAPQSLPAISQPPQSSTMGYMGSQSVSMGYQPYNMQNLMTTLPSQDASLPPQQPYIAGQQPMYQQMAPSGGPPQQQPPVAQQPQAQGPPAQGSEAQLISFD
UniProt Q8N4N8: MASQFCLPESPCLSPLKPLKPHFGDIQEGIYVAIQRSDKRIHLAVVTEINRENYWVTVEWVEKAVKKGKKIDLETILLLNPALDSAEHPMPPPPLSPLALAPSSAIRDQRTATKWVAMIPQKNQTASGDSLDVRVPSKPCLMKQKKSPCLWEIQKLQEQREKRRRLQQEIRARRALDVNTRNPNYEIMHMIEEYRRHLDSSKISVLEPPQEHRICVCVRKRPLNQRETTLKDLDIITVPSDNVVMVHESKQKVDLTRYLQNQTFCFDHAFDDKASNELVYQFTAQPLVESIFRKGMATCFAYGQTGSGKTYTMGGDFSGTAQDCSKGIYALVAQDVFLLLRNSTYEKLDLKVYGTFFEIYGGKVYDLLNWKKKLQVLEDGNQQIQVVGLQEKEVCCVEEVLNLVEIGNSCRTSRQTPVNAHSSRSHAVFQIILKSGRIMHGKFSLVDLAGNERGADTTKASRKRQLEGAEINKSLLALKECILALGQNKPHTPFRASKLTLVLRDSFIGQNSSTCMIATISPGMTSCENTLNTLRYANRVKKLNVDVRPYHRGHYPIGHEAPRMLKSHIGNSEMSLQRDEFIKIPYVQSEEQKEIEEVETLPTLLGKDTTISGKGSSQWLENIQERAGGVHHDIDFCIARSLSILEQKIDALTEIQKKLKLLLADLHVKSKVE
UniProt P09211: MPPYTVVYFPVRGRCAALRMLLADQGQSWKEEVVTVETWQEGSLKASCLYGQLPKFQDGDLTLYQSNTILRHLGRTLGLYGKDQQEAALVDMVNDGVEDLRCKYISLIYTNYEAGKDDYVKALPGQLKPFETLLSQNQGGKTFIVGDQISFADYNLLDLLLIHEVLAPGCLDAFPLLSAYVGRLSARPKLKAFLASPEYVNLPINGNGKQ

How the values were obtained:
[1] = target: Flag-Fbxw5 (full length) (human) (UniProt Q969U6); experiment: co-IP
[2] = target: Fbxw5/Skp1 sub-complex (human) (UniProt Q969U6+P63208); experiment: pull-down
[3] = target: Fbxw5 expressed in Sf21 cells (human) (UniProt Q969U6); experiment: co-purification
[4] = target: endogenous Fbxw5 (human (endogenous; all cell lines of the paper are human)) (UniProt Q969U6); experiment: co-IP
Fbxw7 (human) = Fbxw7 (human) (UniProt Q969H0); experiment: co-IP
[5] = target: Flag-Fbxw5 (full length) (human) (UniProt Q969U6); experiment: co-IP; remark: listed apart in the source
[6] = target: HaloTag(HT)-tagged Fbxw5 (human) (UniProt Q969U6); experiment: FRET or BRET

Molecule: Kif2A purified from Sf21 cells (from UniProt O00139-1 1-679)
- binding [2]: binds

Molecule: endogenous HGS (from UniProt O14964 1-777)
- binding [1]: binds
- binding [4]: binds

B1: HA-MCAK (protein, UniProt Q99661 1-725)
chain: MAMDSSLQARLFPGLAIKIQRSNGLIHSANVRTVNLEKSCVSVEWAEGGATKGKEIDFDDVAAINPELLQLLPLHPKDNLPLQENVTIQKQKRRSVNSKIPAPKESLRSRSTRMSTVSELRITAQENDMEVELPAAANSRKQFSVPPAPTRPSCPAVAEIPLRMVSEEMEEQVHSIRGSSSANPVNSVRRKSCLVKEVEKMKNKREEKKAQNSEMRMKRAQEYDSSFPNWEFARMIKEFRATLECHPLTMTDPIEEHRICVCVRKRPLNKQELAKKEIDVISIPSKCLLLVHEPKLKVDLTKYLENQAFCFDFAFDETASNEVVYRFTARPLVQTIFEGGKATCFAYGQTGSGKTHTMGGDLSGKAQNASKGIYAMASRDVFLLKNQPCYRKLGLEVYVTFFEIYNGKLFDLLNKKAKLRVLEDGKQQVQVVGLQEHLVNSADDVIKMIDMGSACRTSGQTFANSNSSRSHACFQIILRAKGRMHGKFSLVDLAGNERGADTSSADRQTRMEGAEINKSLLALKECIRALGQNKAHTPFRESKLTQVLRDSFIGENSRTCMIATISPGISSCEYTLNTLRYADRVKELSPHSGPSGEQLIQMETEEMEACSNGALIPGNLSKEEEELSSQMSSFNEAMTQIRELEEKAMEELKEIIQQGPDWLELSEMTEQPDYDLETFVNKAESALAQQAKHFSALRDVIKALRLAMQLEEQASRQISSKKRPQ
- binding (Fbxw7 (human)): no binding
- binding [5]: binds

B2: MCAK purified from Sf21 cells (protein, UniProt Q99661 1-725)
chain: MAMDSSLQARLFPGLAIKIQRSNGLIHSANVRTVNLEKSCVSVEWAEGGATKGKEIDFDDVAAINPELLQLLPLHPKDNLPLQENVTIQKQKRRSVNSKIPAPKESLRSRSTRMSTVSELRITAQENDMEVELPAAANSRKQFSVPPAPTRPSCPAVAEIPLRMVSEEMEEQVHSIRGSSSANPVNSVRRKSCLVKEVEKMKNKREEKKAQNSEMRMKRAQEYDSSFPNWEFARMIKEFRATLECHPLTMTDPIEEHRICVCVRKRPLNKQELAKKEIDVISIPSKCLLLVHEPKLKVDLTKYLENQAFCFDFAFDETASNEVVYRFTARPLVQTIFEGGKATCFAYGQTGSGKTHTMGGDLSGKAQNASKGIYAMASRDVFLLKNQPCYRKLGLEVYVTFFEIYNGKLFDLLNKKAKLRVLEDGKQQVQVVGLQEHLVNSADDVIKMIDMGSACRTSGQTFANSNSSRSHACFQIILRAKGRMHGKFSLVDLAGNERGADTSSADRQTRMEGAEINKSLLALKECIRALGQNKAHTPFRESKLTQVLRDSFIGENSRTCMIATISPGISSCEYTLNTLRYADRVKELSPHSGPSGEQLIQMETEEMEACSNGALIPGNLSKEEEELSSQMSSFNEAMTQIRELEEKAMEELKEIIQQGPDWLELSEMTEQPDYDLETFVNKAESALAQQAKHFSALRDVIKALRLAMQLEEQASRQISSKKRPQ
- binding [2]: binds

Next, values leading:

- binding [1]: binds
Molecule: HA-Kif2B (from UniProt Q8N4N8 1-673)

- binding [1]: binds weakly
Molecule: HA-Kif2A (from UniProt O00139-1 1-679)

- binding [3]: binds
Molecule: Skp1ΔΔ (from UniProt P63208 1-163)

- binding [1]: binds
Molecule: endogenous GSTP1 (from UniProt P09211 1-210)

- binding [6]: binds
B3: MCAK fused to NanoLuc luciferase (protein, UniProt Q99661 1-725)
chain: MAMDSSLQARLFPGLAIKIQRSNGLIHSANVRTVNLEKSCVSVEWAEGGATKGKEIDFDDVAAINPELLQLLPLHPKDNLPLQENVTIQKQKRRSVNSKIPAPKESLRSRSTRMSTVSELRITAQENDMEVELPAAANSRKQFSVPPAPTRPSCPAVAEIPLRMVSEEMEEQVHSIRGSSSANPVNSVRRKSCLVKEVEKMKNKREEKKAQNSEMRMKRAQEYDSSFPNWEFARMIKEFRATLECHPLTMTDPIEEHRICVCVRKRPLNKQELAKKEIDVISIPSKCLLLVHEPKLKVDLTKYLENQAFCFDFAFDETASNEVVYRFTARPLVQTIFEGGKATCFAYGQTGSGKTHTMGGDLSGKAQNASKGIYAMASRDVFLLKNQPCYRKLGLEVYVTFFEIYNGKLFDLLNKKAKLRVLEDGKQQVQVVGLQEHLVNSADDVIKMIDMGSACRTSGQTFANSNSSRSHACFQIILRAKGRMHGKFSLVDLAGNERGADTSSADRQTRMEGAEINKSLLALKECIRALGQNKAHTPFRESKLTQVLRDSFIGENSRTCMIATISPGISSCEYTLNTLRYADRVKELSPHSGPSGEQLIQMETEEMEACSNGALIPGNLSKEEEELSSQMSSFNEAMTQIRELEEKAMEELKEIIQQGPDWLELSEMTEQPDYDLETFVNKAESALAQQAKHFSALRDVIKALRLAMQLEEQASRQISSKKRPQ

- binding [5]: binds
B4: endogenous CSRP2 (protein, UniProt Q16527 1-193)
chain: MPVWGGGNKCGACGRTVYHAEEVQCDGRSFHRCCFLCMVCRKNLDSTTVAIHDEEIYCKSCYGKKYGPKGYGYGQGAGTLNMDRGERLGIKPESVQPHRPTTNPNTSKFAQKYGGAEKCSRCGDSVYAAEKIIGAGKPWHKNCFRCAKCGKSLESTTLTEKEGEIYCKGCYAKNFGPKGFGYGQGAGALVHAQ
